Laboratory results from PubChem BioAssay AID2685 (National Center for Advancing Translational Sciences (NCATS), 2010).
The other results are listed elsewhere or left out. Shown are side measurements of this screen, not its main read-out; they come without a call. The list favours compounds with an active or inconclusive main result. The note in brackets gives the kind of curve behind each potency; many fits are weak.

Assay: qHTS Assay for Lipid Storage Modulators in Drosophila S3 Cells;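 as to cell number change: cells counted by Cell Tracker Red CMTPX staining in the red channel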
Details: BODIPY lipid droplet fluorescence, 18-24 h; for cell number change: measured here: cell count max response, cells fed with added oleic acid
Outline: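 Drosophila S3 cells got compounds at several concentrations plus oleic acid (400 uM solution). Laser-scanning cytometry with 488 nm excitation read lipid droplets at 500-530 nm and cells at 575-640 nm. Percent activity was relative to 20 uM Triacsin C.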

[1] = measured here: lipid fluorescence (Fed channel) AC50, cells fed with added oleic acid
[2] = measured here: cell number channel AC50, cells fed with added oleic acid

SMILES | cell number change [%] | AC50 [1] | AC50 [2]
CCOc1ccc2nc(N3CCC(C(=O)NCCCN4CCOCC4)CC3)sc2c1 | -4.48 | 0.461 µM [falling, full curve] | 
Cn1cnnc1SCc1cccc(Br)c1 | 35.3 | 18.4 µM [rising, partial curve, poor fit] | 18.4 µM [rising, partial curve, poor fit]
CN(c1cccc(NC(=O)CCSc2ccccc2)c1)S(C)(=O)=O | -1.15 | 29.1 µM [rising, single point] | 
CCn1ncc(S(=O)(=O)NCc2ccccc2Cl)c1C | -9.12 | 6.51 µM [falling, single point] | 
Fc1ccccc1C1CC(c2ccco2)=Nc2ccccc2S1 (centres undefined) | -31.2 | 18.4 µM [falling, single point] | 18.4 µM [falling, single point]
COc1cc(C2SCC(=O)N2CCc2ccc(OC)c(OC)c2)ccc1O (centres undefined) | -49.8 | 4.61 µM [falling, full curve] | 4.61 µM [falling, full curve, poor fit]
COc1ccc(/C=C(/NC(=O)c2ccc(OC)cc2)C(=O)NCCc2c[nH]c3ccccc23)cc1 | 1.18 | 0.82 µM [rising, partial curve] | 
Cc1cc(NC(=O)OC(C)C)ccc1-c1ccc(NC(=O)OC(C)C)cc1C | 35.7 | 0.461 µM [rising, full curve] | 0.326 µM [rising, full curve, poor fit]
N#C/C(=C\C1=C(N2CCOCC2)C(=C/c2cccc([N+](=O)[O-])c2)/CC1)C(=O)Nc1ccccc1F |  | 2.59 µM [falling, full curve] | 
CCn1c(=O)c2sccc2n(CC(=O)NCCC2=CCCCC2)c1=O | 13.7 | 1.46 µM [falling, full curve] | 
Cn1c(C(=O)OC(C(=O)NC2CCCCC2)c2cccnc2)cc2sccc21 (centres undefined) |  |  | 1.03 µM [rising, partial curve]
CN(C)c1ccc(NC(=O)Nc2ccc3snnc3c2)cc1 | 16.8 | 0.461 µM [rising, full curve, poor fit] | 
CC(C)(C)c1cc(Cc2ccccc2)[nH]n1 | -4.56 |  | 
Nc1nc2nccc(-c3ccco3)n2n1 | -52.9 | 1.46 µM [falling, partial curve] | 1.46 µM [falling, full curve, poor fit]
C=CCNC(=O)c1ccccc1Cl | 106 |  | 29.1 µM [rising, single point]
Cn1c(=S)[nH]c2ccccc21 | 30.9 |  | 0.206 µM [rising, full curve, poor fit]
Cc1c(C#N)c2ncn(Cc3ccccn3)c(=O)c2n1-c1ccccc1 | 22.1 |  | 0.366 µM [rising, single point]
COc1ccc(NC(C)=O)cc1NC(C)C(=O)Nc1cccc2ccccc12 (centres undefined) | 23.7 | 23.1 µM [rising, partial curve] | 
COCCN(C(=O)COC(=O)CSc1ccc(Cl)cc1)c1c(N)n(CC(C)C)c(=O)[nH]c1=O | -17.5 | 6.51 µM [falling, single point] | 

Reformatted tab-delimited: part of the list above.
SMILES	cell number change [%]	AC50 [1]	AC50 [2]
CCn1c(=O)c2sccc2n(CC(=O)NCCC2=CCCCC2)c1=O	13.7	1.46 µM [falling, full curve]	
Cn1c(C(=O)OC(C(=O)NC2CCCCC2)c2cccnc2)cc2sccc21 (centres undefined)			1.03 µM [rising, partial curve]

Next part.

SMILES | cell number change [%] | AC50 [1] | AC50 [2]
CCCOc1ccc(-c2nc(C#N)c(NCCCn3ccnc3)o2)cc1 | -13.9 | 0.116 µM [rising, full curve, poor fit] | 
CCOc1ccc(N2CC(C(=O)N3CCCCCC3)CC2=O)cc1 (centres undefined) | 25.6 | 18.4 µM [rising, partial curve] | 
CCOc1ccc(S(=O)(=O)NCc2cccnc2)c2ccccc12 | -6.09 | 29.1 µM [falling, single point] | 
CC(=O)Nc1cccc(C(=O)/C=C/c2cccs2)c1 | -82.5 | 0.13 µM [falling, full curve] | 18.4 µM [falling, partial curve]
Cc1ccc(C)c(OCCC(=O)NNC(=O)Cn2nc(C)cc2C)c1 |  |  | 6.51 µM [falling, single point]
COc1cccc(C(=O)NCCNC(=O)c2ccco2)c1 | 15.8 |  | 0.00461 µM [rising, full curve, poor fit]
COc1ccc(C)cc1NC(=O)CNC(c1ccccc1)c1ccc(C)cc1 (centres undefined) | 101 | 20.6 µM [rising, partial curve] | 23.1 µM [rising, partial curve]
Cc1ccccc1Oc1cccc(C(=O)/C(C#N)=C/N(C)C)c1 | 3.64 | 6.51 µM [rising, single point] | 6.51 µM [rising, single point]
Cc1cccc(C(=O)Oc2ccccc2-c2nnco2)c1 |  |  | 0.116 µM [falling, full curve, poor fit]
CSc1nc(-c2cccs2)c(C#N)c(=O)[nH]1 | -30.9 |  | 0.731 µM [falling, full curve]
Oc1ccccc1-c1nnc(COc2ccccc2)o1 | 8.97 | 0.164 µM [rising, full curve, poor fit] | 0.146 µM [rising, full curve, poor fit]
O=C1/C(=C\c2cccs2)N=C(c2cccs2)N1Nc1ccccc1 | 50.3 |  | 1.46 µM [rising, full curve]
O=C(N/N=C/c1ccc(OC(=O)c2ccccc2Cl)cc1)c1cc(O)cc(O)c1 | -20.8 | 29.1 µM [falling, single point] | 
Cc1nc2ccccc2nc1Nc1cccc(Cl)c1 | 28.8 | 6.51 µM [rising, single point] | 
COc1ccc(CN2C=C3C(=O)C(C)(OC(=O)CCc4ccccc4)C(=O)C=C3C=C2c2ccc(C#N)cc2)cc1 (centres undefined) | 16.5 | 7.31 µM [rising, partial curve, poor fit] | 
Cn1cc(S(=O)(=O)NCc2ccc(F)cc2)c(=O)n(C)c1=O | 5.16 | 0.103 µM [rising, full curve, poor fit] | 
CC(=O)c1ccc(N2CCN(C(=S)Nc3cccc(Cl)c3)CC2)cc1 | -3.6 | 1.84 µM [rising, full curve] | 
COc1ccccc1N1C(=O)C2C3C=CC(C3)C2(C)C1=O (centres undefined) | -31.4 | 25.9 µM [falling, single point] | 7.31 µM [falling, partial curve, poor fit]
